PubChem BioAssay AID1508597 – Cure First – 2020

Screen: 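Genes whose silencing sensitises or protects ovarian cancer cells against rucaparib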 (primary screen)
Cell system: human ovarian carcinoma lines grown from tumours: OCI-P5x (papillary serous) and OCI-C5x (clear cell)
Knock-down reagent: siRNA pool against human genes, 1.25 pmol siRNA per well
Duration: 72 h or 96 h, depending on the cell culture
Challenge: rucaparib 20 µM (about IC30) or vehicle, present until read-out
Measured: 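Luminescent ATP-based viability assay read 72 or 96 h after transfection, depending on culture, given as normalised percent viability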
Scale: viability, normalised: higher = more viable cells remaining
Call rule: 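Active when normalised viability falls below 80 percent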
Calls: active = viability under 80%; inactive = viability 80% or more
In all, the deposit lists about 2,100 reagents; shown is a random part of them. 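Calls flag viability under 80% in either arm, not effects specific to rucaparib; the reference for percent is not stated.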 Entries without a mark were called inactive. Reagent sequences are not shown. Not stated in the record: the 100% reference.

SPHK1, rucaparib or vehicle Rucaparib, cell line OCI-C5x (clear cell), technical replicate 1 scored viability, normalised (%) = 60.9 (active).
With SPHK1, rucaparib or vehicle Rucaparib, cell line OCI-C5x (clear cell), technical replicate 2 the deposit lists viability, normalised (%) = 49.9 (active).
With SPHK1, rucaparib or vehicle Rucaparib, cell line OCI-C5x (clear cell), technical replicate 3, the entry reads viability, normalised (%) = 46.7 (active).
SPHK1, rucaparib or vehicle Rucaparib, cell line OCI-P5x (serous), technical replicate 1 scored viability, normalised (%) = 61.8 (active).
With SPHK1, rucaparib or vehicle Rucaparib, cell line OCI-P5x (serous), technical replicate 2 the deposit lists viability, normalised (%) = 75.6 (active).
SPHK1, rucaparib or vehicle Rucaparib, cell line OCI-P5x (serous), technical replicate 3 showed viability, normalised (%) = 49.4 (active).
SPHK1, rucaparib or vehicle Vehicle, cell line OCI-C5x (clear cell), technical replicate 1 showed viability, normalised (%) = 134.
For SPHK1, rucaparib or vehicle Vehicle, cell line OCI-C5x (clear cell), technical replicate 2, the values are viability, normalised (%) = 33.7 (active).
SPHK1, rucaparib or vehicle Vehicle, cell line OCI-C5x (clear cell), technical replicate 3 showed viability, normalised (%) = 68.6 (active).
SPHK1, rucaparib or vehicle Vehicle, cell line OCI-P5x (serous), technical replicate 1 showed viability, normalised (%) = 64.6 (active).
With SPHK1, rucaparib or vehicle Vehicle, cell line OCI-P5x (serous), technical replicate 2, the values are viability, normalised (%) = 55.9 (active).
SPHK1, rucaparib or vehicle Vehicle, cell line OCI-P5x (serous), technical replicate 3 scored viability, normalised (%) = 66.7 (active).

A run of entries taken from the entries so far:
SPHK1, rucaparib or vehicle Vehicle, cell line OCI-P5x (serous), technical replicate 1 | viability, normalised (%) = 64.6 (active)
SPHK1, rucaparib or vehicle Vehicle, cell line OCI-P5x (serous), technical replicate 2 | viability, normalised (%) = 55.9 (active)
SPHK1, rucaparib or vehicle Vehicle, cell line OCI-P5x (serous), technical replicate 3 | viability, normalised (%) = 66.7 (active)

Next results follow:
For HPS1, rucaparib or vehicle Rucaparib, cell line OCI-C5x (clear cell), technical replicate 1 the deposit lists viability, normalised (%) = 57.5 (active).
With HPS1, rucaparib or vehicle Rucaparib, cell line OCI-C5x (clear cell), technical replicate 2, the entry reads viability, normalised (%) = 64.1 (active).
HPS1, rucaparib or vehicle Rucaparib, cell line OCI-C5x (clear cell), technical replicate 3 gave viability, normalised (%) = 73.2 (active).
HPS1, rucaparib or vehicle Rucaparib, cell line OCI-P5x (serous), technical replicate 1 gave viability, normalised (%) = 53.6 (active).
With HPS1, rucaparib or vehicle Rucaparib, cell line OCI-P5x (serous), technical replicate 2, the entry reads viability, normalised (%) = 55.2 (active).
With HPS1, rucaparib or vehicle Rucaparib, cell line OCI-P5x (serous), technical replicate 3, the entry reads viability, normalised (%) = 60 (active).
With HPS1, rucaparib or vehicle Vehicle, cell line OCI-C5x (clear cell), technical replicate 1, the values are viability, normalised (%) = 57.5 (active).
HPS1, rucaparib or vehicle Vehicle, cell line OCI-C5x (clear cell), technical replicate 2 showed viability, normalised (%) = 62.5 (active).
HPS1, rucaparib or vehicle Vehicle, cell line OCI-C5x (clear cell), technical replicate 3 scored viability, normalised (%) = 85.5.
HPS1, rucaparib or vehicle Vehicle, cell line OCI-P5x (serous), technical replicate 1 gave viability, normalised (%) = 53.3 (active).
With HPS1, rucaparib or vehicle Vehicle, cell line OCI-P5x (serous), technical replicate 2, the values are viability, normalised (%) = 56.8 (active).
With HPS1, rucaparib or vehicle Vehicle, cell line OCI-P5x (serous), technical replicate 3 the deposit lists viability, normalised (%) = 58.6 (active).
